These are yes or no findings as the source states them, for the method shown. For part of these data: In cells and extracts the contact can be indirect. Some results given as binding are weak or reduced against the parent protein; the word gives no strength.
Assays:
LexA_(DBDmut)-RpoA = LexA_(DBDmut)-RpoA (UniProt P0A7Z7); experiment: two-hybrid
[1] = molecular target: His6-RpoA expressed from pET28-RpoA in S. Typhimurium invF::3xFLAG (UniProt P0A7Z7); experiment: pull-down
His6-RpoA (purified) = His6-RpoA (purified) (UniProt P0A7Z7); experiment: pull-down; only the target purified

Amino acid sequences for entries named in this document (tags omitted).
UniProt P0A7Z7: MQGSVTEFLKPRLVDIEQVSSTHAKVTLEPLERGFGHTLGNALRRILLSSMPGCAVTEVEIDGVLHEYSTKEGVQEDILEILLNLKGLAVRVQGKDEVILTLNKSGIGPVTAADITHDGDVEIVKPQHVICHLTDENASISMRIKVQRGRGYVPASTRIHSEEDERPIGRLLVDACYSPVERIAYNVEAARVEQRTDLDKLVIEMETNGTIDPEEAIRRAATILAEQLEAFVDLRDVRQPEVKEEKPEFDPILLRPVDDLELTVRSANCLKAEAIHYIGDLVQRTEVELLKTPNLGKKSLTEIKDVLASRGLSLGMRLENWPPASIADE
UniProt P69066: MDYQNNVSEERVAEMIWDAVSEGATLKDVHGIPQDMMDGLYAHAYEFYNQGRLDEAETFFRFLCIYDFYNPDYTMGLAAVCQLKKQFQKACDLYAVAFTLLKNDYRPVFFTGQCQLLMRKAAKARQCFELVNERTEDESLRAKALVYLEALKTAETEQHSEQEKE

Q: For “LexA_(DBDwt)-SicA (from UniProt P69066 1-165)”, which binding (LexA_(DBDmut)-RpoA) is on record?
A: Its binding is “binds”.

Q: Which binding [1] does the source give for “SicA (from the extract) (from UniProt P69066 1-165)” here?
A: Its binding is “binds”.

Q: SicA-FLAG (from UniProt P69066 1-165) was tested. Which binding (His6-RpoA (purified)) did it give?
A: The binding was “binds”.

— article PMC10761746
